# Data as given in US9056105B2, “Method for treatment of bone diseases and fractures” (INDIANA UNIVERSITY RESEARCH AND TECHNOLOGY CORPORATION, priority 2008, dated 2015).
# Tested on: MC3T3 cells
# Experiment: Microarray analysis (GSEA, IPA) of thapsigargin-induced mild ER stress
# Assay type: cell-based, mouse
# Conditions: 10 nM; score of 3 or above significant
# Description: Responses to Administration of Thapsigargin—Linkage to hypoxia through microarray analysis: In response to thapsigargin-induced mild ER stress (1 h exposure at 10 nM), microarray experiments were conducted. First, Gene Set Enrichment Analysis (GSEA; Broad Institute) was used to identify a group of genes that shared common biological functions (Hamamura, K., et al., “Microarray analysis of thapsigargin-induced stress to the endoplasmic reticulum of mouse osteoblasts,” J. Bone Miner. Metab. 26:231-240 (2008)). For each group of gene sets, GSEA calculates an enrichment score and evaluates statistical significance in the enrichment score. […] The highest normalized enrichment score was given to the gene set, HYPOXIA_UP. All genes present in the array were reordered based on a ranked list-metric value (a mean expression ratio between the thapsigargin-treated and untreated samples), and the best enrichment score of “−0.66” was assigned. Note that if the expression ratio is random among the genes in HYPOXIA_UP, the expected enrichment score is ±0.23. The enrichment score, ranked […] and P (enrichment score) supported the conclusions drawn from the software program output. […]
compound,measurement,value
C/C=C(/C)C(=O)O[C@H]1C(C)=C2[C@H]([C@@H]1OC(=O)CCCCCCC)[C@@](C)(OC(C)=O)C[C@H](OC(=O)CCC)[C@@]1(O)[C@H]2OC(=O)[C@@]1(C)O [thapsigargin],IPA pathway score (Pathway 1 and Pathway 2),55
